Reference: patent publication EP4778539A1
Where a chain is given by its changes, count along the chain named. Results are given in words; binding and its absence hold for the method and conditions named. Binding can be weak; no strength is given.

B1: humanized antibody complex #69 (antibody, human IgG1, V domains shown)
VH: EVQLVESGGGLVQPGGSLRLSCAASGFSLSSHSLGWVRQAPGKGLEWIGDIRSGGSAYYANWAKGRFTISRDNSKNTLYLQMNSLRAEDTAVYYCTRTNGPSDLTNRLDLWGQGTLVTVSS
VL: QVLTQSPSSLSASVGDRVTINCQASQSLYNNENLAWFQQKPGKVPKRLIYGASTLASGVSSRFSGSGSGTEFTLTISSLQCEDFAIYYCLGEFSCGSADCFAFGGGTKVEIK
B2: humanized antibody complex #70 (antibody, human IgG1, V domains shown)
VH: B1 VH with Y94F
VL: B1 VL
B3: humanized antibody complex #71 (antibody, human IgG1, V domains shown)
VH: B1 VH
VL: EQVLTQSPSSLSASVGDRVTINCQASQSLYNNENLAWFQQKPGKVPKRLIYGASTLASGVSSRFSGSGSGTEFTLTISNLQPEDFAIYYCLGEFSCGSADCFAFGGGTKVEIK
B4: humanized antibody complex #72 (antibody, human IgG1, V domains shown)
VH: B1 VH with Y94F
VL: B3 VL with Q2I, I87T
B5: humanized antibody complex #73 (antibody, human IgG1, V domains shown)
VH: B1 VH
VL: B3 VL with Q2I, I87T
B6: humanized antibody complex #74 (antibody, human IgG1, V domains shown)
VH: B1 VH with Y94F
VL: B3 VL

Molecular target: CAPRIN-1 protein
Experiment: ELISA

binding, binds:
B1, B2, B3, B4, B5, B6
